Measurements as given in the supplement of paper PMC10849652.
Some of the results follow.

The chains behind the UniProt entries cited, without tags or fusion partners. Where a name states a change or a piece, a line headed by the entry shows the natural chain unless it says otherwise.
UniProt Q9UBF6, whole entry, looked up: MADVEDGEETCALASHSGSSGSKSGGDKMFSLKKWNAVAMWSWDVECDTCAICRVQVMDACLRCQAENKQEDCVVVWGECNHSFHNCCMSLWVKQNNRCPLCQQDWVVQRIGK
UniProt Q8TA86: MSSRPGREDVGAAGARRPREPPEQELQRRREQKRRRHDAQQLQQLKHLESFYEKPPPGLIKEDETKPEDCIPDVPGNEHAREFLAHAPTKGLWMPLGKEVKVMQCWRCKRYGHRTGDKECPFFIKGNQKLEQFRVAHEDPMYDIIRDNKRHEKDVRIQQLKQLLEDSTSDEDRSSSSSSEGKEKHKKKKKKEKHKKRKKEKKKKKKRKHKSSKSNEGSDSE
UniProt Q9P2E9: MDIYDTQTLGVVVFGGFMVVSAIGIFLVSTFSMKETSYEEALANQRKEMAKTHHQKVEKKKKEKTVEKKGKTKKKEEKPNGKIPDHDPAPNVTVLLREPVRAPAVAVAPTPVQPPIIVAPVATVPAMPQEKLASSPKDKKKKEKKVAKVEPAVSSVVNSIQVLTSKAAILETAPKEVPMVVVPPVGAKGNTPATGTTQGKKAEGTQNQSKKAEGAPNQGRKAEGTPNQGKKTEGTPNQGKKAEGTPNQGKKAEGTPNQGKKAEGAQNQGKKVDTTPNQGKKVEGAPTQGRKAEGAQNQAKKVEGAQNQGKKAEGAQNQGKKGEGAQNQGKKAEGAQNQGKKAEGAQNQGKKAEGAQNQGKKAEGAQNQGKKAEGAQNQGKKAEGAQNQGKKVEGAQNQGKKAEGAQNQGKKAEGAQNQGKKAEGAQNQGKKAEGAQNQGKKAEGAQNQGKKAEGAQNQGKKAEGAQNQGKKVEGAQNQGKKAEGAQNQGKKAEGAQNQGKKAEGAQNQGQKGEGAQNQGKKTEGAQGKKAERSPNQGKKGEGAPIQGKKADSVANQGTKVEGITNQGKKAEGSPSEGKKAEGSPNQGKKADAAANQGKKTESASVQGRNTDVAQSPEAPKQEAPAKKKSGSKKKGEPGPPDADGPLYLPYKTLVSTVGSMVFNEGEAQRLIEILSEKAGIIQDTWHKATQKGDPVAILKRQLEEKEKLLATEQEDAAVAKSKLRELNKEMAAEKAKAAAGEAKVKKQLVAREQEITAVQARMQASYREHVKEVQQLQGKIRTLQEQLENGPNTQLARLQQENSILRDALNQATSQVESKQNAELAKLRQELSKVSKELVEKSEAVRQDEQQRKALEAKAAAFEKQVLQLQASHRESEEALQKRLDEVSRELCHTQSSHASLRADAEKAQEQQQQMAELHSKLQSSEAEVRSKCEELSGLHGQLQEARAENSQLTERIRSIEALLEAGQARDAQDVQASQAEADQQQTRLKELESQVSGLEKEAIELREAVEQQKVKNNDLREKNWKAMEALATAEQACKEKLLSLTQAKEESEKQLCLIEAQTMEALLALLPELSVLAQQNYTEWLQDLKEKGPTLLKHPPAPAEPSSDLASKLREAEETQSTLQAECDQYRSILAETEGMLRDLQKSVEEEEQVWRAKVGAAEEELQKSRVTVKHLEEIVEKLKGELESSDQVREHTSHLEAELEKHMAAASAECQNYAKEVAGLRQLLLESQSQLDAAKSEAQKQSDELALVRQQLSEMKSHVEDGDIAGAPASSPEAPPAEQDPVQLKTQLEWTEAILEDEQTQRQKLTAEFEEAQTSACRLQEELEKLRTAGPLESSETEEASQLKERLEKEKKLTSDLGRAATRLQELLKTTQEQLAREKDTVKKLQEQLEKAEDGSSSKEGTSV
UniProt Q96S38: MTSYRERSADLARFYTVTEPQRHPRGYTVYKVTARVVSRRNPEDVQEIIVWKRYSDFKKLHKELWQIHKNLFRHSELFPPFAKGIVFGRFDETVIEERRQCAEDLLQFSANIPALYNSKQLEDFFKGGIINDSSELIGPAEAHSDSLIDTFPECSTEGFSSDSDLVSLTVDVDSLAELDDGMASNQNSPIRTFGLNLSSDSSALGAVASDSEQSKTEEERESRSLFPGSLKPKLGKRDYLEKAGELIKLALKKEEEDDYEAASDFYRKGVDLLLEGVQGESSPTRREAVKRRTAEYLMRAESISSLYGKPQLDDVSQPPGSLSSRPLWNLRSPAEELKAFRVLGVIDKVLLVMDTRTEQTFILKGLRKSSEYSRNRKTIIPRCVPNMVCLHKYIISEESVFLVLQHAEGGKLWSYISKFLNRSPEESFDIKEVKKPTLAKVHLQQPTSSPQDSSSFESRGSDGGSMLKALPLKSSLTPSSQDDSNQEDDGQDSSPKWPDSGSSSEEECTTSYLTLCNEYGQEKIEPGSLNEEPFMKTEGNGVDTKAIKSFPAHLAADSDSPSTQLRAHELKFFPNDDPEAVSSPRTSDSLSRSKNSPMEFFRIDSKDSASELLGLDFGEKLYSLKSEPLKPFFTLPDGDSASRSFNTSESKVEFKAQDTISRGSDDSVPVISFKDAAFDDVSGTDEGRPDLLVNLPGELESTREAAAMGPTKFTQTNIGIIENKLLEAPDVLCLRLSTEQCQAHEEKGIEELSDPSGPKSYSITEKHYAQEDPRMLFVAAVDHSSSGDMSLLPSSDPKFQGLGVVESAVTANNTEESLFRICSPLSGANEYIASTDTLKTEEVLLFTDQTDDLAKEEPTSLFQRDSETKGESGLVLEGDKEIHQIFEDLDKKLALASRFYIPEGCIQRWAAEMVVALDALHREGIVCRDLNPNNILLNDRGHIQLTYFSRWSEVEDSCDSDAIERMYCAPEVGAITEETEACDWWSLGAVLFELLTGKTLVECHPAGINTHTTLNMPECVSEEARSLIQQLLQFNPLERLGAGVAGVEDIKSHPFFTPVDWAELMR
UniProt O75818: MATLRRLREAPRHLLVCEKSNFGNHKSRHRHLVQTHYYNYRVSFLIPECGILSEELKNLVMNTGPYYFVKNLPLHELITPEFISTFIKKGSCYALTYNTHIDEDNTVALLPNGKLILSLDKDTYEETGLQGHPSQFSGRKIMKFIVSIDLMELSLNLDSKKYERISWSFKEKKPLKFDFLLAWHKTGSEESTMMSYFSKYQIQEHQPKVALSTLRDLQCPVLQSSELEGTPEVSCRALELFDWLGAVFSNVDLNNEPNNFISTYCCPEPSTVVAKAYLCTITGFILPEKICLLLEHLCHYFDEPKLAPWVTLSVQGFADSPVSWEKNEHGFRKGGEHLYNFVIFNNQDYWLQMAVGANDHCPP
UniProt P62070: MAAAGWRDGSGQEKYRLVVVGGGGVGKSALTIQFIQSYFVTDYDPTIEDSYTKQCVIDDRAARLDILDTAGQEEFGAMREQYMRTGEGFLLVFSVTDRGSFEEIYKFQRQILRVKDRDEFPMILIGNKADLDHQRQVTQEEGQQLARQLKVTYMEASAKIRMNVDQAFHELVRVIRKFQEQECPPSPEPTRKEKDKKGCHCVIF
UniProt Q96BH1: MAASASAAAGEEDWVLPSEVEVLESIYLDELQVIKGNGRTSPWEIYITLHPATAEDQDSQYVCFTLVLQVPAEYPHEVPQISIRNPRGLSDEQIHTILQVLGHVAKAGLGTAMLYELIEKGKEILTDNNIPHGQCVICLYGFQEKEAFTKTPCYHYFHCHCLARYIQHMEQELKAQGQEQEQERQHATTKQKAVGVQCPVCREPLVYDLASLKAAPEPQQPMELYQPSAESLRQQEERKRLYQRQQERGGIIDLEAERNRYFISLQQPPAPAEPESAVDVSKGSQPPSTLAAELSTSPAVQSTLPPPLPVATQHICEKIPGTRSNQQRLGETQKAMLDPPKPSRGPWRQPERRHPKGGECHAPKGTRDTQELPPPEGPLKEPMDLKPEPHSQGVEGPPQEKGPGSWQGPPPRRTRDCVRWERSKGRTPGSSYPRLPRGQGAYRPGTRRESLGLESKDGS
UniProt P35244: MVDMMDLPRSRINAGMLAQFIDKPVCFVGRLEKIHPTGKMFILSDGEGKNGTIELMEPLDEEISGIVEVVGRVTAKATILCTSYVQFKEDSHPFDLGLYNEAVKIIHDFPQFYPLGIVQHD
UniProt Q15349, whole entry, looked up: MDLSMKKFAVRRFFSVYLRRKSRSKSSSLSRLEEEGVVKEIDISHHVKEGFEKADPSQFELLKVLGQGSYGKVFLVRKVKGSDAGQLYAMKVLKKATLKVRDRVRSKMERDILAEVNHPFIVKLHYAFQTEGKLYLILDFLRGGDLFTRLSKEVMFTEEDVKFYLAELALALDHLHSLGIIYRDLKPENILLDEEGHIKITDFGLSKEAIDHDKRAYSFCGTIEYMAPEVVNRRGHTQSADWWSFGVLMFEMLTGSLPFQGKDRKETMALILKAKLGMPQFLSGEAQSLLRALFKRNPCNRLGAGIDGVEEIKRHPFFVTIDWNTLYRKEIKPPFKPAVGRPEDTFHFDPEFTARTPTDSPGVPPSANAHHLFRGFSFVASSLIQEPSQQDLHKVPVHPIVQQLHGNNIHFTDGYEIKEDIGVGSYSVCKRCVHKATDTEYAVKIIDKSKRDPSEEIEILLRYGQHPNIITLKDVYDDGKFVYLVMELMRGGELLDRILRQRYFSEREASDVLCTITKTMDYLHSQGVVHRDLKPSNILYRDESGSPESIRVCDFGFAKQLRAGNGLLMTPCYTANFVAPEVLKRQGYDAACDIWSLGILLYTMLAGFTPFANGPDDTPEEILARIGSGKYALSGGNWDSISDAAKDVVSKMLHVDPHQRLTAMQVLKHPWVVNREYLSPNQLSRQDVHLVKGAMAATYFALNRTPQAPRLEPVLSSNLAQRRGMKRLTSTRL
UniProt O75695: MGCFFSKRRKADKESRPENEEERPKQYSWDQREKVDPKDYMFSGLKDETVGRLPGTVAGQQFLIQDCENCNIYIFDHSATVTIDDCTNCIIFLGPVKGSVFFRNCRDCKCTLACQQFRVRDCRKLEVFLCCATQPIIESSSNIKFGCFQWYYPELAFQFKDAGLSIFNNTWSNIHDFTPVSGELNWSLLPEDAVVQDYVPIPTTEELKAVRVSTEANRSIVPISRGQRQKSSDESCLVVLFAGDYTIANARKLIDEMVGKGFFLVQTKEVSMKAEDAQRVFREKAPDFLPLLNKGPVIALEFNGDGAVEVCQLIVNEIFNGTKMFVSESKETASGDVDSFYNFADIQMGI

compound: CO[C@H]1C[C@@H]2CC[C@@H](C)[C@@](O)(O2)C(=O)C(=O)N2CCCC[C@H]2C(=O)O[C@H]([C@H](C)C[C@@H]2CC[C@H](n3cnnn3)[C@H](OC)C2)CC(=O)[C@H](C)/C=C(\C)[C@@H](O)[C@@H](OC)C(=O)[C@H](C)C[C@H](C)/C=C/C=C/C=C/1C [zotarolimus]; test: log2 fold change, soluble protein after heating vs DMSO (PISA); higher = thermal stabilisation; K562 cells, 10 uM, 30 min; active = over 0.2 and 3.5 SD of the protein, either way, in both replicates (recomputed)
Summary of the method: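 For each measurement, 10 μM compound was applied for 30 min to K562 cells at 2×10^6 cells/mL. Aliquots were heated for 3 min across 48°C-58°C, pooled, and extracted in PBS with 0.5% NP-40 at 4°C; the supernatant after 21,000xg for 90 min was soluble protein. This was quantified by TMTpro 16plex LC-MS/MS with channel sums equalised, and thermal stability was reported relative to control samples from duplicates, on a log2 fold-change scale.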

log2 fold change, inactive:
RNF7 (UniProt Q9UBF6) 0.03, RPS20 isoform 2 (UniProt P60866) 0.019, RPS27A (UniProt P62979) 0.009, RP9 (UniProt Q8TA86) 0.007, RRBP1 (UniProt Q9P2E9) 0.01, RPL39P5 (UniProt Q59GN2) -0.072, RPL36AL (UniProt Q969Q0) 0.09, RPS6KC1 (UniProt Q96S38) -0.055, RPL23 (UniProt P62829) -0.002, RPP40 (UniProt O75818) -0.026, RRAS2 isoform 4 (UniProt P62070) -0.025, RPS23 (UniProt P62266) 0.046, RPL30 (UniProt P62888) -0.056, RPL11 (UniProt P62913) -0.006, RNF25 (UniProt Q96BH1) 0.033, RPL12 (UniProt P30050) -0.033, RPS3 (UniProt P23396) -0.023, RPA3 (UniProt P35244) 0.056, RPS25 (UniProt P62851) -0.015, RPL27 (UniProt P61353) 0.088, RPS6KA2 isoform 2 (UniProt Q15349) 0.016, RPL36A (UniProt P83881) 0.06, RP2 (UniProt O75695) 0.139
